According to PubChem BioAssay AID1347426 (Functional Genomics Laboratory (NCATS/FGL), 2020):
The campaign covered roughly 31,000 sequences. About 1,400 (4.5%) were called active.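 How the source made its calls: active means median seed-adjusted z-score above 1 or below -1; inactive means the rest.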 The list shows a part of the results.

Test: Novel Modifiers of Survival Motor Neuron (SMN) Protein: Gene Identification via Genome-wide siRNA Screen;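 further: luminescence tracks full-length SMN protein made from the SMN2 reporter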
Conditions: HEK293T SMN2-luciferase reporter, siRNA knockdown, 72 h; actives lie on both sides
Summary of the method: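 Each of three siRNAs per gene is reverse-transfected (1 pmol) into reporter HEK293T cells whose luciferase output tracks SMN protein level. After 72 h culture, ONE-Glo luminescence is control-normalized, log10-transformed and MAD-standardized; Common Seed Analysis deprioritizes seed-driven hits.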
In the case of GGAACAGCACAGAACAGCATT against ARID5A, the median seed-adjusted z-score is reported as inactive: 0.0642. In the case of CCAGGGAAAUAUCAGCCUUTT against APRT, the median seed-adjusted z-score is reported as inactive: 0.0278. For GAACUGAGAGUGAUUGAGATT against IL8, the median seed-adjusted z-score was inactive: 0.0521. For CCUCUAUACCAAGCCCUAATT against ST18, the median seed-adjusted z-score was inactive: 0.0762. In the case of GCCUCUCAAUGAGUAUCGATT against AIFM2, the median seed-adjusted z-score is reported as inactive: -0.106. With GAUGAGGUCUUAGAUGCAATT against USP30 the median seed-adjusted z-score was inactive: -0.646. With GGCUCGCUUUGAAAAGCUATT against LIN7A the median seed-adjusted z-score was active: -1.39. For AGGGCACCUCAGAAACAGATT against CD40, the median seed-adjusted z-score was inactive: 0.275. In the case of GAACGAGUGAAAUACGAGATT against DNAH5, the median seed-adjusted z-score is reported as inactive: -0.45. For GAACCAAGAUCAUUAUGCATT against DNAJC2, the median seed-adjusted z-score was inactive: -0.0357. With UGACAUCCGUAAGGACUUATT against ACTG2 the median seed-adjusted z-score was inactive: 0.157. With GAGCAAUGCUGACUAUCAATT against CNOT7 the median seed-adjusted z-score was inactive: 0.716. With GACUGAAUGUUUAUACAGUTT against OSBPL1A the median seed-adjusted z-score was inactive: 0.0845. In the case of GGAUACGAGGUGGACAAAATT against CHIT1, the median seed-adjusted z-score is reported as inactive: -0.578. For GAGUCGAAAGGACAAAGAATT against MLLT6, the median seed-adjusted z-score was inactive: -0.281. For CACUAGCAGUUGCAAGUAATT against RAB3GAP2, the median seed-adjusted z-score was inactive: 0.0583. For CCCUCAACCUCCACAACAATT against PODNL1, the median seed-adjusted z-score was inactive: -0.448. For CCAACAAGAUGCUAGAGCATT against CBFA2T2, the median seed-adjusted z-score was inactive: -0.201. In the case of AAACUAAUCUUAACCCUGUTT against GJB1, the median seed-adjusted z-score is reported as inactive: 0.152. With GACUUUUGGACCAACCUAATT against FARP2 the median seed-adjusted z-score was inactive: -0.0358. With GAGUGGACUGUGGAAGAUATT against RCOR1 the median seed-adjusted z-score was active: -1.13. For AGAUGAACCUCUACUAUGATT against FOXI1, the median seed-adjusted z-score was inactive: -0.217. In the case of GAAGAAUACGUACACCGAATT against DDX43, the median seed-adjusted z-score is reported as inactive: -0.452. With GGGUUUGGAGGCCGAAAUATT against CCDC88B the median seed-adjusted z-score was inactive: -0.153. For CUACAUAGGUGUCUCCAAATT against SERPINA12, the median seed-adjusted z-score was inactive: -0.382. In the case of GGAUGAUCCACUCACAAAUTT against ACTN1, the median seed-adjusted z-score is reported as inactive: 0. With UUACCAUCGUGAAGAGAAATT against CLEC5A the median seed-adjusted z-score was active: -1.07. For AAUCGAAGGAUGAAGAUGATT against HOXC9, the median seed-adjusted z-score was inactive: 0.395. In the case of CAGGAGUCGUUGGAAGUUATT against PDE4A, the median seed-adjusted z-score is reported as inactive: -0.147. In the case of GGUCCCUCCUUACUCAACATT against HSPB8, the median seed-adjusted z-score is reported as inactive: 0.207. In the case of GCUCUUUACUUGUAGUAAUTT against GPR137C, the median seed-adjusted z-score is reported as inactive: -0.405. For CAGUCACCGUGAAAAAGGATT against TCF7L1, the median seed-adjusted z-score was inactive: -0.251. For GGCUUCAACUUGGAGCUCUTT against GAD1, the median seed-adjusted z-score was inactive: 0.101. For GGGUGAAUGCUAUUGAGUUTT against MKRN1, the median seed-adjusted z-score was inactive: -0.496. In the case of CUGCAGACUUGAAACAGUUTT against GNG5, the median seed-adjusted z-score is reported as inactive: -0.215. In the case of GAGCUUCACUGUUACUAAATT against KRT6A, the median seed-adjusted z-score is reported as inactive: -0.146. In the case of CGUCUUUCCUUGUCUAUCUTT against KCNQ5, the median seed-adjusted z-score is reported as inactive: 0.0191. With CGCUGUUUAGCGUACAUGATT against PCDHGA5 the median seed-adjusted z-score was inactive: 0.163. For GAAUCUUAGCGGCUACAGATT against SKP2, the median seed-adjusted z-score was inactive: -0.126. In the case of GGCUCAUUGUUCUGCACUATT against S1PR4, the median seed-adjusted z-score is reported as inactive: 0.0951. With CUGUUGUCGUUAUCUUGAATT against ORC3L the median seed-adjusted z-score was inactive: -0.254. In the case of CAUCCAUCCUGAGUCUGAATT against BTD, the median seed-adjusted z-score is reported as inactive: -0.165. In the case of GACCCACGCAGGGAGUUAATT against CDH26, the median seed-adjusted z-score is reported as inactive: 0. With GAGCGGCUGUUUGAAGAUUTT against CHRNA3 the median seed-adjusted z-score was inactive: -0.359. For GGAGGAAUCUUGGUCCUUATT against SLC11A2, the median seed-adjusted z-score was inactive: -0.157. With GAAGAAUAUUCGCAAAAUATT against HOXC4 the median seed-adjusted z-score was inactive: -0.0114. In the case of GCAGAACUCUAACCGCUGUTT against MARK4, the median seed-adjusted z-score is reported as inactive: -0.675. For GAGGCGAUAUUGAUGUGCATT against GTF3C3, the median seed-adjusted z-score was inactive: 0.21. With GGCUAUCUUCCACUGUUUATT against KCNMB3 the median seed-adjusted z-score was inactive: 0.513. For GGUCAGCAAUGGAAGUAAUTT against ONECUT1, the median seed-adjusted z-score was inactive: -0.367. For GGAAGAGAUUCAAGUAUUATT against SLC7A11, the median seed-adjusted z-score was inactive: -0.182. For GCUUCUACCCGGACGAAGATT against MYCN, the median seed-adjusted z-score was inactive: 0.00242. With GAGAAGUCGAGGCUCUUUATT against WNT6 the median seed-adjusted z-score was inactive: 0.027. In the case of GGCUCAUGCUUCAACAACATT against DMC1, the median seed-adjusted z-score is reported as inactive: -0.00876. With CCGGCUCUCUGCUUACGUATT against TNFRSF4 the median seed-adjusted z-score was inactive: 0.311. With GGUGCCCAUCAAUCUCAUATT against GSTZ1 the median seed-adjusted z-score was inactive: -0.144. For GCUGAUAGCUUACGAGGAATT against CDC2L5, the median seed-adjusted z-score was inactive: 0.314. For CCUAAUGCCUAUGAACUCUTT against PRMT5, the median seed-adjusted z-score was inactive: -0.303. With GGGUCAAGGCUUUUGCAGATT against LDHD the median seed-adjusted z-score was inactive: 0. For CGAUAUGCUGAACAACAAATT against DHX29, the median seed-adjusted z-score was inactive: -0.28. For CCAAGUAAGUCCAACGAAATT against SPP1, the median seed-adjusted z-score was inactive: -0.293. With GUACGUGGACUGAUAUUAATT against CHD9 the median seed-adjusted z-score was inactive: 0.218. In the case of GCUCAAUCCGGUACUUUGATT against CORO1A, the median seed-adjusted z-score is reported as inactive: 0.569. For GCAUUGGUCUAGAGCUUUATT against SCPEP1, the median seed-adjusted z-score was inactive: -0.99. In the case of GAAUCCCAAUGGAUUGAUUTT against IGF1R, the median seed-adjusted z-score is reported as inactive: -0.358. For GGACAACAUUUGACACCAATT against APOBEC2, the median seed-adjusted z-score was inactive: 0.232. For GGUUACGCUUGAUGAUAUATT against TCF20, the median seed-adjusted z-score was inactive: 0.392. For GAUGAUGACUUACAUAGAATT against TRRAP, the median seed-adjusted z-score was active: -1.25.
